# Assay results taken from patent publication US20140187422A1, “Fungicidal substituted 1--1H-[1,2,4]triazole compounds” (BASF SE, priority 2011, published 2014).
# Some of these results come from one statement about several compounds together.
# Legend:
# Puccinia recondita = assay: Green house: preventative control of brown rust on wheat caused by Puccinia recondita (Puccrt P7); assay type: in vivo; settings: 250 ppm, sprayed 7 days before inoculation; untreated plants 90% infected
# Septoria tritici = assay: Green house: preventative control of leaf blotch on wheat caused by Septoria tritici (Septtr P7); assay type: in vivo; settings: 250 ppm, sprayed 7 days before inoculation; untreated plants 70% infected
# Botrytis cinerea = assay: Microtiterplate test: activity against the grey mold Botrytis cinerea (Botrci); assay type: cell-based; settings: 32 ppm; relative growth vs control (100%), 7 days after inoculation
# Leptosphaeria nodorum = assay: Microtest: activity against wheat leaf spots caused by Leptosphaeria nodorum (Leptno); assay type: cell-based; settings: 32 ppm; relative growth vs control (100%), 7 days after inoculation
# Alternaria solani = assay: Green house: preventative fungicidal control of early blight on tomatoes (Alteso P1); assay type: in vivo, Alternaria solani on tomato; settings: 300 ppm, sprayed 1 day before inoculation; untreated plants 90% infected
# Phakopsora pachyrhizi = assay: Green house: curative control of soy bean rust on soy beans caused by Phakopsora pachyrhizi (Phakpa K4); assay type: in vivo; settings: 250 ppm, sprayed 4 days after inoculation; untreated plants 70% infected
smiles,measurement,setting,value
"COC(Cn1cncn1)(c1ccc(Oc2ccc(Cl)cc2)cc1Cl)C1CC1 (stereo not drawn) [I-1, 1-[2-[2-chloro-4-(4-chlorophenoxy)phenyl]-2-cyclopropyl-2-methoxy-ethyl]-1,2,4-triazole]",infection (% diseased leaf area) Puccrt P7,Puccinia recondita,less than or equal to 3%
same,infection (% diseased leaf area) Septtr P7,Septoria tritici,less than or equal to 1%
same,growth (%) Botrci,Botrytis cinerea,≤ 10%
same,growth (%) Leptno,Leptosphaeria nodorum,≤ 7%
same,infection (% diseased leaf area) Alteso P1,Alternaria solani,less than or equal to 10%
same,infection (% diseased leaf area) Phakpa K4,Phakopsora pachyrhizi,less than or equal to 10%
